The list is a part of this screen's results and no random one: it gathers tests that were run many times, whatever their T/C, doses with no T/C, and many T/C values between a quarter and a half above the control. Other doses and runs of a compound stand elsewhere. T/C gives the treated animals as a percentage of the vehicle group. Some entries give survivors of the animals treated and no T/C: the source files T/C as zero there, which appears to mark a toxic dose or a test without result, not a measured value. Some survivor counts are full or nearly so, which does not show that the dose was tolerated: the source hardly ever lists a survival T/C far under the control, and the zero likely stands for such cases as well. Survivors were counted at the toxicity check, usually on the fifth day, unless a day is given; later deaths do not show. Schedule codes are those of the source, taken here to give the interval after Q, in days (D) or hours (H), and the number of doses after X. Signs of the kind (2×) count equal records among those shown. Some entries were tested several times; their values stand side by side, smallest first. Where survival is the endpoint, this PubChem deposit counts one and a half times the control or more as active, and values a quarter to a half above the control carry no call in these data; other NCI protocols may use other cut-offs. Some T/C values carry the count of animals alive at the toxicity check (mostly the fifth day); where none is given, no animal had died by that day.
System: BDF1 mice, s.c. Lewis lung carcinoma, T/C %
Test: NCI In Vivo Anticancer Drug Screen. Data for tumor model Lewis Lung Carcinoma (subcutaneous) in B6D2F1 (BDF1) mice
Settings: vehicle: saline
Method in brief: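 Readout: survival or tumor size, expressed as treated (T) over vehicle control (C). Transplantable tumor implanted in mice; compound given to the treated group.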

[1] = T/C endpoint: median survival time, dose: 50.0 mg/kg/injection, schedule: Q01DX009 (ip), higher T/C = longer survival

O=P1(N(CCCl)CCCl)NCCCO1 (centres undefined)
survivor count (T/C endpoint: mean tumor weight (est.), dose: 65.0 mg/kg/injection, schedule: Q01DX009 (ip), higher T/C = larger tumour): 4 of 8 | survivor count (T/C endpoint: mean tumor weight (est.), dose: 300.0 mg/kg/injection, schedule: Q01DX001 (ip), higher T/C = larger tumour): 2 of 8 | survivor count (T/C endpoint: mean tumor weight, dose: 90.0 mg/kg/injection, schedule: Q01DX011 (ip), higher T/C = larger tumour): 5 of 10 | survivor count (T/C endpoint: median survival time, dose: 5.0 mg/kg/injection, schedule: Q01DX001 (ip), higher T/C = longer survival): 10 of 10 | survivor count (T/C endpoint: median survival time, dose: 5.0 mg/kg/injection, schedule: Q01DX009 (ip), higher T/C = longer survival): 10 of 10 | survivor count (T/C endpoint: median survival time, dose: 10.0 mg/kg/injection, schedule: Q01DX009 (ip), higher T/C = longer survival): 10 of 10 | T/C (T/C endpoint: median survival time, dose: 12.5 mg/kg/injection, schedule: Q02DX009 (ip), higher T/C = longer survival): 125 % of control | T/C (T/C endpoint: median survival time, dose: 20.0 mg/kg/injection, schedule: Q01DX005 (ip), higher T/C = longer survival): 146 % of control | survivor count (T/C endpoint: median survival time, dose: 20.0 mg/kg/injection, schedule: Q01DX009 (ip), higher T/C = longer survival): 10 of 10 | T/C (T/C endpoint: median survival time, dose: 23.0 mg/kg/injection, schedule: Q01DX009 (ip), higher T/C = longer survival): 129 % of control | T/C (T/C endpoint: median survival time, dose: 25.0 mg/kg/injection, schedule: Q01DX001 (ip), higher T/C = longer survival): 134 % of control | T/C (T/C endpoint: median survival time, dose: 25.0 mg/kg/injection, schedule: Q01DX009 (ip), evaluated on day 45, higher T/C = longer survival): 137 % of control | T/C (T/C endpoint: median survival time, dose: 25.0 mg/kg/injection, schedule: Q01DX009 (ip), evaluated on day 60, higher T/C = longer survival): 91, 113, 128, 145 % of control | T/C (T/C endpoint: median survival time, dose: 25.0 mg/kg/injection, schedule: Q02DX009 (ip), higher T/C = longer survival): 133 % of control | survivor count (T/C endpoint: median survival time, dose: 30.0 mg/kg/injection, schedule: Q01DX009 (ip), higher T/C = longer survival): 10 of 10 | survivor count (T/C endpoint: median survival time, dose: 30.0 mg/kg/injection, schedule: Q01DX011 (ip), higher T/C = longer survival): 10 of 10 | survivor count (T/C endpoint: median survival time, dose: 39.0 mg/kg/injection, schedule: Q01DX009 (ip), higher T/C = longer survival): 8 of 8 | survivor count (T/C endpoint: median survival time, dose: 40.0 mg/kg/injection, schedule: Q01DX009 (ip), higher T/C = longer survival): 10 of 10 (2×) | survivor count (T/C endpoint: median survival time, dose: 40.0 mg/kg/injection, schedule: Q01DX011 (ip), higher T/C = longer survival): 10 of 10 | T/C (T/C endpoint: median survival time, dose: 50.0 mg/kg/injection, schedule: Q01DX001 (ip), higher T/C = longer survival): 142 % of control | T/C [1]: 106, 130, 157, 183 % of control [9 of 10 alive] | survivor count [1]: 10 of 10 | survivor count (T/C endpoint: median survival time, dose: 50.0 mg/kg/injection, schedule: Q02DX009 (ip), higher T/C = longer survival): 10 of 10 | T/C (T/C endpoint: median survival time, dose: 53.0 mg/kg/injection, schedule: Q04DX004 (ip), higher T/C = longer survival): 141 % of control | survivor count (T/C endpoint: median survival time, dose: 65.0 mg/kg/injection, schedule: Q01DX009 (ip), higher T/C = longer survival): 4 of 8, 6 of 8, 5 of 6 | survivor count (T/C endpoint: median survival time, dose: 66.0 mg/kg/injection, schedule: Q01DX009 (ip), higher T/C = longer survival): 10 of 10 | T/C (T/C endpoint: median survival time, dose: 72.0 mg/kg/injection, schedule: Q01DX001 (ip), higher T/C = longer survival): 130 % of control | T/C (T/C endpoint: median survival time, dose: 75.0 mg/kg/injection, schedule: Q01DX001 (ip), higher T/C = longer survival): 97, 102, 135, 137 % of control | survivor count (T/C endpoint: median survival time, dose: 75.0 mg/kg/injection, schedule: Q02DX009 (ip), higher T/C = longer survival): 10 of 10 | survivor count (T/C endpoint: median survival time, dose: 80.0 mg/kg/injection, schedule: Q01DX009 (ip), higher T/C = longer survival): 10 of 10 | T/C (T/C endpoint: median survival time, dose: 80.0 mg/kg/injection, schedule: Q04DX004 (ip), higher T/C = longer survival): 135 % of control | T/C (T/C endpoint: median survival time, dose: 90.0 mg/kg/injection, schedule: Q01DX001 (ip), higher T/C = longer survival): 125 and 126 % of control | T/C (T/C endpoint: median survival time, dose: 100.0 mg/kg/injection, schedule: Q01DX001 (ip), evaluated on day 49, higher T/C = longer survival): 143 % of control | T/C (T/C endpoint: median survival time, dose: 100.0 mg/kg/injection, schedule: Q01DX001 (ip), evaluated on day 60, higher T/C = longer survival): 142 and 143 % of control | survivor count (T/C endpoint: median survival time, dose: 100.0 mg/kg/injection, schedule: Q01DX004 (ip), higher T/C = longer survival): 5 of 8 | survivor count (T/C endpoint: median survival time, dose: 100.0 mg/kg/injection, schedule: Q01DX009 (ip), higher T/C = longer survival): 8 of 10, 10 of 10, 8 of 8 | T/C (T/C endpoint: median survival time, dose: 100.0 mg/kg/injection, schedule: Q11DX002 (ip), higher T/C = longer survival): 137 % of control [8 of 9 alive] | T/C (T/C endpoint: median survival time, dose: 108.0 mg/kg/injection, schedule: Q01DX001 (ip), evaluated on day 6, higher T/C = longer survival): 130 and 364 % of control | T/C (T/C endpoint: median survival time, dose: 108.0 mg/kg/injection, schedule: Q01DX001 (ip), evaluated on day 17, higher T/C = longer survival): 132 % of control | T/C (T/C endpoint: median survival time, dose: 108.0 mg/kg/injection, schedule: Q01DX001 (ip), evaluated on day 50, higher T/C = longer survival): 113 % of control [8 of 10 alive on day 50] | T/C (T/C endpoint: median survival time, dose: 108.0 mg/kg/injection, schedule: Q01DX001 (ip), evaluated on day 52, higher T/C = longer survival): 125 % of control | T/C (T/C endpoint: median survival time, dose: 108.0 mg/kg/injection, schedule: Q01DX001 (ip), evaluated on day 60, higher T/C = longer survival): 135 % of control | survivor count (T/C endpoint: median survival time, dose: 108.0 mg/kg/injection, schedule: Q01DX001 (ip), higher T/C = longer survival): 3 of 8 on day 100 | T/C (T/C endpoint: median survival time, dose: 120.0 mg/kg/injection, schedule: Q01DX001 (ip), evaluated on day 5, higher T/C = longer survival): 132 and 149 % of control | T/C (T/C endpoint: median survival time, dose: 120.0 mg/kg/injection, schedule: Q01DX001 (ip), evaluated on day 12, higher T/C = longer survival): 115 and 123 % of control | T/C (T/C endpoint: median survival time, dose: 120.0 mg/kg/injection, schedule: Q04DX004 (ip), higher T/C = longer survival): 135 % of control | T/C (T/C endpoint: median survival time, dose: 150.0 mg/kg/injection, schedule: Q01DX001 (ip), evaluated on day 14, higher T/C = longer survival): 109 % of control | T/C (T/C endpoint: median survival time, dose: 150.0 mg/kg/injection, schedule: Q01DX001 (ip), evaluated on day 15, higher T/C = longer survival): 130 % of control | T/C (T/C endpoint: median survival time, dose: 150.0 mg/kg/injection, schedule: Q01DX001 (ip), evaluated on day 60, higher T/C = longer survival): 109, 152, 167 [9 of 10 alive], 171 % of control | survivor count (T/C endpoint: median survival time, dose: 150.0 mg/kg/injection, schedule: Q01DX009 (ip), higher T/C = longer survival): 8 of 10 | T/C (T/C endpoint: median survival time, dose: 180.0 mg/kg/injection, schedule: Q01DX001 (ip), evaluated on day 6, higher T/C = longer survival): 234 and 364 % of control | T/C (T/C endpoint: median survival time, dose: 180.0 mg/kg/injection, schedule: Q01DX001 (ip), evaluated on day 17, higher T/C = longer survival): 129 % of control | T/C (T/C endpoint: median survival time, dose: 180.0 mg/kg/injection, schedule: Q01DX001 (ip), evaluated on day 50, higher T/C = longer survival): 167 % of control | survivor count (T/C endpoint: median survival time, dose: 180.0 mg/kg/injection, schedule: Q01DX001 (ip), higher T/C = longer survival): 0 of 8 on day 100 | T/C (T/C endpoint: median survival time, dose: 200.0 mg/kg/injection, schedule: Q01DX001 (ip), evaluated on day 5, higher T/C = longer survival): 136 and 145 % of control | T/C (T/C endpoint: median survival time, dose: 200.0 mg/kg/injection, schedule: Q01DX001 (ip), evaluated on day 49, higher T/C = longer survival): 200 % of control | T/C (T/C endpoint: median survival time, dose: 200.0 mg/kg/injection, schedule: Q01DX001 (ip), evaluated on day 60, higher T/C = longer survival): 243 % of control | survivor count (T/C endpoint: median survival time, dose: 200.0 mg/kg/injection, schedule: Q01DX001 (ip), higher T/C = longer survival): 9 of 10 | survivor count (T/C endpoint: median survival time, dose: 200.0 mg/kg/injection, schedule: Q04DX003 (sc), higher T/C = longer survival): 0 of 10 on day 58 | T/C (T/C endpoint: median survival time, dose: 300.0 mg/kg/injection, schedule: Q01DX001 (ip), evaluated on day 6, higher T/C = longer survival): 234 and 364 % of control | T/C (T/C endpoint: median survival time, dose: 300.0 mg/kg/injection, schedule: Q01DX001 (ip), evaluated on day 14, higher T/C = longer survival): 177 % of control | T/C (T/C endpoint: median survival time, dose: 300.0 mg/kg/injection, schedule: Q01DX001 (ip), evaluated on day 17, higher T/C = longer survival): 143 % of control | T/C (T/C endpoint: median survival time, dose: 300.0 mg/kg/injection, schedule: Q01DX001 (ip), evaluated on day 50, higher T/C = longer survival): 167 % of control | T/C (T/C endpoint: median survival time, dose: 300.0 mg/kg/injection, schedule: Q01DX001 (ip), evaluated on day 52, higher T/C = longer survival): 100 % of control [7 of 8 alive] | T/C (T/C endpoint: median survival time, dose: 300.0 mg/kg/injection, schedule: Q01DX001 (ip), evaluated on day 60, higher T/C = longer survival): 131, 157, 171 % of control | survivor count (T/C endpoint: median survival time, dose: 300.0 mg/kg/injection, schedule: Q01DX001 (ip), higher T/C = longer survival): 0 of 8 on day 100, 2 of 8, 8 of 10 | T/C (T/C endpoint: median survival time, dose: 300.0 mg/kg/injection, schedule: Q09DX002 (ip), higher T/C = longer survival): 125 % of control | survivor count (T/C endpoint: median survival time, dose: 400.0 mg/kg/injection, schedule: Q01DX001 (ip), higher T/C = longer survival): 6 of 10 on day 49 and 10 of 10 | survivor count (T/C endpoint: median tumor weight (est.), dose: 25.0 mg/kg/injection, schedule: Q01DX009 (ip), higher T/C = larger tumour): 6 of 10

Reference: PubChem BioAssay AID270 (DTP/NCI, 2004)
